# According to the supplement of paper PMC4371806:
# The full ranking holds about 2,300 compounds; the median of “plate-normalized OD600 growth (mean of duplicates)” is about 0.29, and the lowest 2% start at about 0.22. The list shows a part of the results.
# Test system: Escherichia coli BW25113
# Experiment: plate-normalized OD600 growth (mean of duplicates) (OD600 (normalized)); higher = more growth (less inhibition)
# Details: 10 µM
# Protocol: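 E. coli BW25113 in LB (100 µl, 96-well, no shaking) was exposed to 10 µM of each compound from a ~30,000-member library and grown at 37°C for 24 h or 15°C for 48 h, in duplicate. Growth was read as OD600 and the duplicate ODs were normalized across screening plates to correct plate-to-plate variation. Hits were >3σ below the mean OD600 at 15°C and <2σ below the mean at 37°C.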
Structure (SMILES),"plate-normalized OD600 growth (temperature: 15°C, 48 h)","plate-normalized OD600 growth (temperature: 37°C, 24 h)"
CCOC(=O)CN1NC2(CCC(C)CC2)NC1=S (centres undefined),0.249,0.614
O=C(CSc1nnnn1-c1ccccc1)NC1Cc2ccccc2C1,0.284,0.645
O=C1CCC(C(=O)O)(c2ccccc2)C1 (centres undefined),0.243,0.611
COc1ccc(/C=C2/N=C(c3ccccc3)N(Cc3ccco3)C2=O)cc1,0.237,0.614
Cc1cc(Cl)nc(NNC(=O)NC2CCCCC2)c1C#N,0.244,0.607
Cc1ccc(C(=O)Nc2cccc(C(=O)O)c2)cc1S(=O)(=O)N1CCCC1,0.222,0.622
O=C(CCC(=O)Nc1cccc(Cl)c1)N/N=C/c1ccco1,0.259,0.629
C/C(=N\Nc1ccccc1)c1cc(=O)n(-c2ccccn2)c(C)c1C(=O)Nc1ccccn1,0.244,0.617
CC[C@@H]1C(=O)OC[C@@H]1Cc1cncn1C,0.246,0.634
Cc1nn(CC(=O)NNC(=O)COc2ccc(Cl)cc2Cl)c(C)c1Br,0.235,0.607
O=C(CCNc1n[nH]c(=O)[nH]c1=O)NCc1ccco1,0.233,0.645
O=C(COc1ccccc1)Nc1cc(-c2nc3ncccc3o2)ccc1Cl,0.222,0.614
CCCOc1ccc(N2C(=O)CC(NNC(=O)c3ccc(Br)s3)C2=O)cc1 (centres undefined),0.233,0.604
O=C(COc1ccc(/C=N/NC(=O)CO)cc1)NCC1CCCO1 (centres undefined),0.227,0.668
O=C(CSc1nc2ccc(N3C(=O)c4ccc([N+](=O)[O-])cc4C3=O)cc2s1)Nc1ccccc1C(F)(F)F,0.247,0.617
O=C(NCCN1CCOCC1)c1c(O)c2ccccc2[nH]c1=O,0.248,0.626
N#Cc1ccccc1COc1ccc(/C=N\NC(=O)C(O)(c2ccccc2)c2ccccc2)cc1I,0.25,0.618
CC(=O)OCc1ccc(/C=C(\C#N)S(=O)(=O)c2ccc(Cl)cc2)o1,0.253,0.65
CN(C)C=O.O=C(COc1ccc(Cl)cc1Cl)NNc1cc(N2CCOCC2)nc(N2CCOCC2)n1.O=C(COc1ccc(Cl)cc1Cl)NNc1cc(N2CCOCC2)nc(N2CCOCC2)n1.O=C(COc1ccc(Cl)cc1Cl)NNc1cc(N2CCOCC2)nc(N2CCOCC2)n1.O=C(COc1ccc(Cl)cc1Cl)NNc1cc(N2CCOCC2)nc(N2CCOCC2)n1.O=C(COc1ccc(Cl)cc1Cl)NNc1cc(N2CCOCC2)nc(N2CCOCC2)n1.O=C(COc1ccc(Cl)cc1Cl)NNc1cc(N2CCOCC2)nc(N2CCOCC2)n1.O=C(COc1ccc(Cl)cc1Cl)NNc1cc(N2CCOCC2)nc(N2CCOCC2)n1,0.247,0.604

Structure (SMILES),"plate-normalized OD600 growth (temperature: 15°C, 48 h)","plate-normalized OD600 growth (temperature: 37°C, 24 h)"
S=C1NCN(CCN2CCCC2)CN1,0.252,0.609
CN1CCN(Cc2cn[nH]c2-c2ccccc2)CC1,0.228,0.63
CCOC(=O)c1ccc(-c2ccc(/C=C(\C#N)C(=O)NC3CCCCC3)o2)cc1,0.241,0.604
Cn1sc2cc([N+](=O)[O-])cc([N+](=O)[O-])c2c1=O,0.252,0.619
Cc1ccc(N2CC(=O)N(/N=C/c3ccc(F)cc3)C2=S)cc1,0.232,0.63
Cc1oc(S(=O)(=O)N(C)C)cc1C(=O)O,0.236,0.608
COc1ccc2oc(=O)c(C(=O)OCc3ccccc3)cc2c1,0.252,0.622
CCCCC(CC)CNC(=O)C(=O)NCCc1ccc(OC)c(OC)c1 (centres undefined),0.245,0.643
Cc1cccc(C)c1NC(=O)CSc1ccc(C(F)(F)F)cn1,0.245,0.614
C/C(=N/OC(=O)c1ccc(Cl)cc1)c1ccc(F)cc1,0.236,0.601
CN=C1NC(=O)C(CC(=O)Nc2ccc(Cl)cc2)S1 (centres undefined),0.249,0.631
CC(=O)Cc1cnc2ncnn2c1,0.232,0.615
S=C(NCCCn1ccnc1)Nc1cc(Cl)ccc1Cl,0.259,0.619
CN(C)c1ccc(C2NC(c3ccc(N(C)C)cc3)C(c3ccccc3)C(=O)C2c2ccccc2)cc1 (centres undefined),0.262,0.624
Cc1cc(=O)[nH]c(-c2ccccn2)n1,0.238,0.594
O=C(CSc1nnnn1-c1ccc(OC(F)(F)F)cc1)Nc1ccc(OC(F)(F)F)cc1,0.258,0.617
O=C(Oc1cc(S(=O)(=O)c2ccccc2)ccc1[N+](=O)[O-])c1ccc(Cl)cc1,0.259,0.623
O=c1cc(-c2cccc3ccccc23)[nH][nH]1,0.26,0.631
COC(=O)CSc1nc(N)cc(=O)[nH]1,0.247,0.605

# Another view of 2 compounds above.
Structure (SMILES)	plate-normalized OD600 growth (temperature: 15°C, 48 h)	plate-normalized OD600 growth (temperature: 37°C, 24 h)
CCOC(=O)c1ccc(-c2ccc(/C=C(\C#N)C(=O)NC3CCCCC3)o2)cc1	0.241	0.604
Cn1sc2cc([N+](=O)[O-])cc([N+](=O)[O-])c2c1=O	0.252	0.619

# Following part.

Structure (SMILES),"plate-normalized OD600 growth (temperature: 15°C, 48 h)","plate-normalized OD600 growth (temperature: 37°C, 24 h)"
Cc1ccc(/C=N/Nc2nc3nonc3nc2Nc2ccc(I)cc2)o1,0.237,0.651
COc1ccccc1NC(=O)N1CCCN(C(=O)c2cccs2)CC1,0.234,0.599
O=C(NCCNc1ccc(C(F)(F)F)cc1[N+](=O)[O-])c1cccs1,0.246,0.606
N#Cc1sccc1Br,0.276,0.622
CCCc1cnc(N2CCCN(C(=S)Nc3cccnc3)CC2)nc1,0.26,0.642
COc1cccc(OC)c1C(C)(O)C(OC)OC (centres undefined),0.244,0.627
Cc1nnn(-c2nonc2N)c1C(=O)N/N=C/c1ccc(O)cc1O,0.27,0.616
COc1ccc(C2CC(=O)C3=C(C2)Nc2ccccc2N(C(=O)c2cccc(Cl)c2)C3c2cccs2)cc1 (centres undefined),0.244,0.626
COc1ccc(C(=O)CN2CCN(c3cc(C)nc4ccccc34)CC2)cc1,0.264,0.623
CC1=C(C(=O)Nc2ccc(Cl)cc2)C(c2ccco2)C(C#N)=C(SCc2ccccc2)N1 (centres undefined),0.241,0.64
COc1cc2ncnc(Nc3cccc(Cl)c3)c2cc1OC,0.256,0.63
CSc1nc2sc(C)c(C)c2c(=O)n1-c1ccccc1,0.219,0.653
CC(=O)Nc1ccc(-c2nc3ccccc3o2)cc1,0.244,0.591
CCN(CC)C(=S)Oc1ccc(C(=O)Nc2ccccc2)cc1,0.252,0.613
CC(OCc1ccccc1)C(NC(=O)OC(C)(C)C)C(N)=O (centres undefined),0.241,0.605
COc1ccc(/C=C/C(=O)/C=C/c2ccc(OC)cc2)cc1,0.236,0.611
CCCCOc1ccc(/C=N/NC(=O)c2c(C)nnn2-c2nonc2N)cc1,0.266,0.615
O=C(O)c1ccc(S(=O)(=O)O)cc1N1C(=O)/C(=C/C=C/c2ccccc2)N=C1c1ccccc1,0.251,0.648
O=C(N/N=C\c1cccc(OC(=O)c2ccco2)c1)/C(=C/c1ccc2c(c1)OCO2)NC(=O)c1ccccc1,0.245,0.621

# Looked up above.
# Under plate-normalized OD600 growth (temperature: 15°C, 48 h), CCCc1cnc(N2CCCN(C(=S)Nc3cccnc3)CC2)nc1 has 0.26
# Under plate-normalized OD600 growth (temperature: 37°C, 24 h), O=C(NCCN1CCOCC1)c1c(O)c2ccccc2[nH]c1=O has 0.626
